The supplement of paper PMC8166895
This is one part of the list. Most values lie at the level of the controls, where differences are scatter.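 A single-replicate pilot screen of approved drugs and clinical or known-target compounds measured melting temperature via differential scanning fluorimetry. Top stabilizing hits raised the melting point by 2 °C or more; negative shifts indicate destabilization.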

Each compound was assayed on SARS-CoV-2 main protease (Mpro, nsp5) (assay: thermal shift ΔTm of Mpro relative to plate average Tm; higher = stronger thermal stabilization of Mpro (binding)). Details: 10 µM; protein concentration 1 µM.

SMILES	thermal shift ΔTm of Mpro [°C]
NC(=O)c1[nH]cnc1N [4-Amino-5-imidazolecarboxamide]	0.0695
CC[C@]12CCCN3CCc4c(n(c5ccccc45)C(=O)C1)[C@@H]32 [Eburnalritardo]	-0.0325
CCOC(=O)c1ccc(N2NC(=O)C(=Cc3ccc([N+](=O)[O-])o3)C2=O)cc1	0.588
C#C[C@]1(O)C=C[C@H]2[C@@H]3CCC4=CC(=O)CC[C@@H]4[C@H]3CC[C@@]21CC [Gestodene]	0.519
Cc1ccc(S(=O)(=O)NCl)cc1 [Chloramine-T]	1.9
O=[N+]([O-])c1cc(Cl)ccc1S(=O)(=O)c1ccccc1	-0.118
C[C@@H]1CN(c2c(F)c(N)c3c(=O)c(C(=O)O)cn(C4CC4)c3c2F)C[C@H](C)N1 [Sparfloxacin]	0.0987
C[C@@H]1O[C@@H]1P(=O)(O)O [Fosfomycin calcium]	0.083
COc1cc2nccc(Oc3ccc(NC(=O)Nc4ccc(F)cc4F)c(F)c3)c2cc1OC	0.524
CC1(C)[C@@H](O[C@H]2O[C@H](C(=O)O)[C@@H](O)[C@H](O)[C@H]2O[C@@H]2O[C@H](C(=O)O)[C@@H](O)[C@H](O)[C@H]2O)CC[C@]2(C)[C@H]3C(=O)C=C4[C@@H]5C[C@@](C)(C(=O)O)CC[C@]5(C)CC[C@@]4(C)[C@]3(C)CC[C@@H]12 [Ammonium Glycyrrhizinate]	-0.102
CC1(C)[C@@H](O[C@H]2O[C@H](C(=O)O)[C@@H](O)[C@H](O)[C@H]2O[C@@H]2O[C@H](C(=O)O)[C@@H](O)[C@H](O)[C@H]2O)CC[C@]2(C)[C@H]3C(=O)C=C4[C@@H]5C[C@@](C)(C(=O)O)CC[C@]5(C)CC[C@@]4(C)[C@]3(C)CC[C@@H]12 [Glycyrrhizin (Glycyrrhizic Acid)]	-0.239
NCC(=O)O.[C-]#[O+].[C-]#[O+].[C-]#[O+].[Cl][Ru]	-0.684
Cc1cc(C(=O)CN2CCCC2)c(C)n1-c1ccc(F)cc1	-0.0782
COc1cc(NC(=O)c2ccc(-c3ccc(Cl)cc3)o2)cc(OC)c1	0.131
CCOC(=O)CCC(=O)O[C@H]1[C@H](O[C@@H]2[C@@H](C)[C@H](O[C@H]3C[C@@](C)(OC)[C@@H](O)[C@H](C)O3)[C@@H](C)C(=O)O[C@H](CC)[C@@](C)(O)[C@H](O)[C@@H](C)C(=O)[C@H](C)C[C@@]2(C)O)O[C@H](C)C[C@@H]1N(C)C [Erythromycin Ethylsuccinate]	0.0253
N#Cc1ccc(Cn2cncc2CN2CCN(c3cccc(Cl)c3)C(=O)C2)cc1	0.0422
c1ccc2c(Oc3nc(Nc4ccc(N5CCOCC5)cc4)c4ncn(C5CCCCC5)c4n3)cccc2c1 [Purmorphamine]	-0.0605

A second format for part of the listing above.
SMILES | thermal shift ΔTm of Mpro [°C]
CC[C@]12CCCN3CCc4c(n(c5ccccc45)C(=O)C1)[C@@H]32 [Eburnalritardo] | -0.0325
Cc1cc(C(=O)CN2CCCC2)c(C)n1-c1ccc(F)cc1 | -0.0782
